Measured values from patent publication US20110262439A1 (Amgen, published 2011).

Target: human c-MET (extracellular domains fused to a truncated variant of human EpCAM) (human)
Assay: FACS, CHO transfectants, periplasmic preparation

binding: binds
B1: ME06B7HL (scFv)
scFv: EVQLLEQSGAELVRPGTSVKISCKATGYTFTTYWLGWVKQRPGHGLEWIGEIHPGGGYTNYNEKFKGKATLTADTSSSTAYMQLSRLTSDDSAIYYCARSGYDYGSSYDYYGMDYWGQGTTVTVSSGGGGSGGGGSGGGGSELVMTQSPSSLSASLGERVSLTCRASQDIGSSLNWLQQEPDGTIKRLIYATSSLDSGVPKRFSGSRSGSDYSLTISSLESEDFVDYYCLQYASSPYTFGGGTKLEIKTGDYKDDDDKHHHHHH
notes: murine anti-c-MET scFv; E. coli periplasmic preparation

binding: binds
B2: ME99B1HL (scFv)
scFv: EVQLLEQSGAELVRPGTSVKISCKATGYTFSNYWISWVKYRPGHGLEWIGDIYPGGSYTNYNEKFKGKVTLTADTSSRTAYMQLSGLTFEDSAIYYCARSGYDYGSDYDYHGMDYWGQGTTVTVSSGGGGSGGGGSGGGGSELQMTQSPASLSASVGETVTITCRASENIYSNLAWYQQKQGKSPQLLVYAATNLADGVPSRFSGSRSGSDYSLTISSLESEDFVDYYCLQYASYPYTFGGGTKLEIKTGDYKDDDDKHHHHHH
notes: as for B1

binding: binds
B3: ME05B7HL (scFv)
scFv: EVQLLEQSGAELVRPGTSVKISCKTTGYTFGYYWISWLKQRPGHGLEWIGDIYPGGGYTNYHEKFKGKVTLTADTSSRTAYMQLSSLTFEDSAIYYCARSGYDYGSDYDYHGMDYWGQGTTVTVSSGGGGSGGGGSGGGGSELVMTQTPSSLSASLGDRVTISCRASQGISNYLNWYQQKPDGSVKLLIYYTSRLHSGVPSRFSGSGSGTDYSLTISNLDQEDIATYFCQQGNTLPWTFGGGTKLEIKTGDYKDDDDKHHHHHH
notes: as for B1

binding: binds
B4: ME05F6HL (scFv)
scFv: EVQLLEQSGAEVVRPGTSVKMSCKAAGYTFTKYWIGWVKQRPGHGLEWIGDIHPGGGFANYNEKFKGKATLTADTSSSTAYMQLSRLTSDDSAIYYCARSGYDYGSSYDYHGMDYWGQGTTVTVSSGGGGSGGGGSGGGGSELVMTQSPSSLSASLGERVSLTCRASQEISGYLSWLQQKPDGTIKRLIYAASTLDSGVPKRFSGSRSGSDYSLTISSLESEDFADYYCLQYASYPPTFGGGTKLEIKTGDYKDDDDKHHHHHH
notes: as for B1

binding: binds
B5: ME06C7HL (scFv)
scFv: EVQLLEQSGAEVVRPGTSVKMSCKAAGYTFTKYWIGWVKQRPGHGLEWIGDIHPGGGFANYNEKFKGKATLTADTSSSTAYMQLSRLTSDDSAIYYCARSGYDYGSSYDYHGMDYWGQGTTVTVSSGGGGSGGGGSGGGGSELQMTQSPTSLAVSLGQRATISCRASQTVYYDGNNYMNWYQHKPGQPPKLLIYATSNLESGIPARFSGSGSGTDFTLNIHPVEAEDAATYYCQQSYEDPYTFGGGTKLEIKTGDYKDDDDKHHHHHH
notes: as for B1

binding: binds
B6: ME06E10HL (scFv)
scFv: EVQLLEQSGADLVRPGTSVKLSCKAAGYTFSRYWISWIRQRPGHGLEWIGEIYPGGGYGNYNENFKDKVTLTADTSSSTAYMQLSSLTSEDSAIYYCARSGYDYGSKYDYYGLDYWGQGTTVTVSSGGGGSGGGGSGGGGSELVMTQSPSSLSASLGERVSLTCRASQEISGYLSWLQQKPDGTIKRLIYAASTLDSGVPKRFSGSRSGSDYSLTISSLESEDFADYYCLQYASSPYTFGGGTKLEIKTGDYKDDDDKHHHHHH
notes: as for B1

binding: binds
B7: ME75H6HL (scFv)
scFv: EVQLLEQSGAELVRPGTSVKMSCKAAGYTFTKYWIGWVKQRPGHGLEWIGDIHPGGGYANYNEKFKGKATLTADTSSSTAYMQLSRLTSDDSAIYYCARSGYDYGSSYDYHGMDFWGQGTTVTVSSGGGGSGGGGSGGGGSELQMTQSPASLSASVGEPVTFTCRASENIYSYLAWYQQKQGKSPQLLIYGATNLADGMSSRFSGSGSGRQYSLKISSLHPDDVATYYCQNVLSTPYTFGGGTKLEIKTGDYKDDDDKHHHHHH
notes: as for B1

binding: binds
B8: ME06F2HL (scFv)
scFv: EVQLLEQSGAELMKPGASVKISCKATGYTFSNYWIGWVKQRPGHGLEWIGDIYPGGSYTNYNEKFKGKVTLTADTSSRTAYMQLSSLTFEDSAIYYCARSGYDYASDYDYHGMDYWGQGTTVTVSSGGGGSGGGGSGGGGSELVLTQSPSSMSASLGDRITITCQATQDIVKNLNWYQQKPGKPPSFLIYYATELAEGVPSRFSGSGSGSDYSLTISNLESEDFADYYCLQFYEFPYTFGGGTKLEIKTGDYKDDDDKHHHHHH
notes: as for B1

binding: binds
B9: ME06D1HL (scFv)
scFv: EVQLLEQSGAEVVRPGTSVKMSCKAAGYTFTKYWIGWVKQRPGHGLEWIGDIHPGGGFANYNEKFKGKATLTADTSSSTAYMQLSRLTSDDSAIYYCARSGYDYGSSYDYHGMDYWGQGTTVTVSSGGGGSGGGGSGGGGSELVMTQSPSSLTVTAGEKVTMSCKSSQSLLNSGNQKNYLAWYQQKPGQPPKLLIYGASTRESGVPDRFTGSGSGTDFTLTISSVQAEDLADYFCQQHYSTPYTFGGGTKLEIKTGDYKDDDDKHHHHHH
notes: as for B1

binding: binds
B10: ME06D2HL (scFv)
scFv: EVQLLEQSGADLVRPGTSVKLSCKAAGYTFSRYWISWIRQRPGHGLEWIGEIYPGGGYGNYNENFKDKVTLTADTSSSTAYMQLSSLTSEDSAIYYCARSGYDYGSKYDYYGLDYWGQGTTVTVSSGGGGSGGGGSGGGGSELVMTQSPSSMYASLGERVTITCKASQDINSYLSWFQQKPGKSPKTLIYRANRLVDGVPSRFSGSGSGQDYSLTISSLEYEDMGIYYCLQYDAFPPTFGAGTKLEIKTGDYKDDDDKHHHHHH
notes: as for B1

binding: binds
B11: ME06C6HL (scFv)
scFv: EVQLLEQSGAELVRPGTSVKIPCKATGYTFSYYWIGWVKQRPGHGLEWIGDIYPGGGYSNYNEKFKGKATLTADTSSSTAYMQLSGLTSEDSAIYYCARSGYDYGSDYDYHGLDYWGQGTTVTVSSGGGGSGGGGSGGGGSELVLTQSPASLAVSLGQRATISCRASESVEYYGTSLMQWYQQKPGQPPKLLIYAASNVESGVPARFSGSGSGTDFSLNIHPVEEDDIAMYFCQQSRKVPYTFGGGTKLEIKTGDYKDDDDKHHHHHH
notes: as for B1

Results are given in words; binding and its absence hold for the method and conditions named. Binding calls can cover weak binding; strength is not graded here. Each block holds one binder with its values, some of them ahead of it.
